PubChem BioAssay AID1259254 | NCATS, 2017
The whole screen tested about 59,000 reagents; below is a part drawn at random. Over the whole deposit, about 1,550 (2.6%) got an active call. 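G2 share is only a proxy for re-replication; each gene was hit by three separate siRNAs, and active genes were retested.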 Reagents against one gene are numbered here. Further read-outs or replicates are left out here. No sequences are given here. Not stated in the record: the amount of reagent.

Purpose: 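Finding genes that stop cells copying their DNA twice in one cycle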 (primary screen)
Cells: human HCT116 colorectal cancer cells
Reagents: single siRNA against human genes
Timing: 3 days
Measurement: 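Nuclei stained with Hoechst and imaged; cell-cycle phase assigned by DNA content; G2 share scaled per plate, non-targeting siRNA 0%, GMNN siRNA 100%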
Direction: G2 robust z-score: higher = more G2 cells, more excess DNA replication
Rule for the call: 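Active siRNAs have a G2 robust z of 5 or more median absolute deviations over the median, which in these data means about 38% or higher of GMNN control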

| target | siRNA no. | G2 robust z-score | outcome |
| --- | --- | --- | --- |
| ASAP2 (ArfGAP with SH3 domain, ankyrin repeat and PH domain 2) | 1 | -0.124 | inactive |
| ASAP2 (ArfGAP with SH3 domain, ankyrin repeat and PH domain 2) | 2 | 2.56 | inactive |
| ASAP2 (ArfGAP with SH3 domain, ankyrin repeat and PH domain 2) | 3 | -1.14 | inactive |
| MCAT | 1 | 1.28 | inactive |
| MCAT | 2 | -0.888 | inactive |
| MCAT | 3 | -0.996 | inactive |
| LINC02877 (long independently transcribed non-coding RNA 2877) | 1 | 1.04 | inactive |
| LINC02877 (long independently transcribed non-coding RNA 2877) | 2 | 9.27 | active |
| LINC02877 (long independently transcribed non-coding RNA 2877) | 3 | -0.382 | inactive |
| LRWD1 (leucine rich repeats and WD repeat domain containing 1) | 1 | -0.087 | inactive |
| LRWD1 (leucine rich repeats and WD repeat domain containing 1) | 2 | -0.566 | inactive |
| LRWD1 (leucine rich repeats and WD repeat domain containing 1) | 3 | -0.565 | inactive |
| TRMT10B (tRNA methyltransferase 10B) | 1 | -0.33 | inactive |
| TRMT10B (tRNA methyltransferase 10B) | 2 | -0.841 | inactive |
| TRMT10B (tRNA methyltransferase 10B) | 3 | 0.52 | inactive |
| SLC22A15 | 1 | -0.183 | inactive |
| SLC22A15 | 2 | -1.03 | inactive |
| SLC22A15 | 3 | 6.46 | active |
| PRSS12 (serine protease 12) | 1 | -0.885 | inactive |
| PRSS12 (serine protease 12) | 2 | 2.26 | inactive |
| PRSS12 (serine protease 12) | 3 | -0.682 | inactive |
| BCL11B (BCL11 transcription factor B) | 1 | 0.092 | inactive |
| BCL11B (BCL11 transcription factor B) | 2 | -0.357 | inactive |
| BCL11B (BCL11 transcription factor B) | 3 | -0.975 | inactive |
| DNAH3 (dynein axonemal heavy chain 3) | 1 | -0.107 | inactive |
| DNAH3 (dynein axonemal heavy chain 3) | 2 | 0.0255 | inactive |
| DNAH3 (dynein axonemal heavy chain 3) | 3 | -0.554 | inactive |
| SERPINA5 (serpin family A member 5) | 1 | 0.954 | inactive |
| SERPINA5 (serpin family A member 5) | 2 | 7.06 | active |
| SERPINA5 (serpin family A member 5) | 3 | -0.787 | inactive |
| NR1H3 (nuclear receptor subfamily 1 group H member 3) | 1 | 2.9 | inactive |
| NR1H3 (nuclear receptor subfamily 1 group H member 3) | 2 | -1.18 | inactive |
| NR1H3 (nuclear receptor subfamily 1 group H member 3) | 3 | -0.354 | inactive |
| HNRNPL (heterogeneous nuclear ribonucleoprotein L) | 1 | 0.543 | inactive |
| HNRNPL (heterogeneous nuclear ribonucleoprotein L) | 2 | -0.318 | inactive |
| HNRNPL (heterogeneous nuclear ribonucleoprotein L) | 3 | 7.42 | active |
| CASP3 (caspase 3) | 1 | 0.639 | inactive |
| CASP3 (caspase 3) | 2 | 3.88 | inactive |
| CASP3 (caspase 3) | 3 | 0.0622 | inactive |
| BCL10 (BCL10 immune signaling adaptor) | 1 | 0.186 | inactive |
| BCL10 (BCL10 immune signaling adaptor) | 2 | 0.298 | inactive |
| BCL10 (BCL10 immune signaling adaptor) | 3 | 1.57 | inactive |
| DIAPH1 (diaphanous related formin 1) | 1 | 0.258 | inactive |
| DIAPH1 (diaphanous related formin 1) | 2 | 1.37 | inactive |
| DIAPH1 (diaphanous related formin 1) | 3 | 1.74 | inactive |
| PRKAG1 (protein kinase AMP-activated non-catalytic subunit gamma 1) | 1 | -0.408 | inactive |
| PRKAG1 (protein kinase AMP-activated non-catalytic subunit gamma 1) | 2 | 1.01 | inactive |
| PRKAG1 (protein kinase AMP-activated non-catalytic subunit gamma 1) | 3 | 0.945 | inactive |

Entries listed so far called active (4):
| target | siRNA no. | G2 robust z-score | outcome |
| --- | --- | --- | --- |
| LINC02877 (long independently transcribed non-coding RNA 2877) | 2 | 9.27 | active |
| SLC22A15 | 3 | 6.46 | active |
| SERPINA5 (serpin family A member 5) | 2 | 7.06 | active |
| HNRNPL (heterogeneous nuclear ribonucleoprotein L) | 3 | 7.42 | active |
